Measured data: PubChem BioAssay AID1259254 (NCATS, 2017)

Assay: 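Finding genes that stop cells copying their DNA twice in one cycle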 (primary screen)
Cells: human HCT116 colorectal cancer cells
Reagent: single siRNA against human genes
Timing: 3 days
Detection: 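Imaged Hoechst DNA stain sorts each cell into a cycle phase by DNA amount; per plate, G2 fraction set to 0% for non-targeting and 100% for GMNN siRNA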
Reading the numbers: G2 robust z-score: higher = more G2 cells, more excess DNA replication
Rule for the call: 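Active siRNAs have a G2 robust z of 5 or more median absolute deviations over the median, which in these data means about 38% or higher of GMNN control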
Shown is an unselected part of about 59,000 deposited reagents. About 1,550 of all reagents (2.6%) were called active. 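G2 share is only a proxy for re-replication; each gene was hit by three separate siRNAs, and active genes were retested.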 A number with no mark means an inactive call. The numbers tell different reagents against one gene apart. Further read-outs or replicates are left out here. Reagent sequences are not shown. Not given: the amount of reagent.

{"gene knocked down": "SPHAR (retired record)", "siRNA no.": 1, "G2 robust z-score": 0.703}
{"gene knocked down": "SPHAR (retired record)", "siRNA no.": 2, "G2 robust z-score": 0.518}
{"gene knocked down": "SPHAR (retired record)", "siRNA no.": 3, "G2 robust z-score": 0.621}
{"gene knocked down": "GOLGA8EP", "siRNA no.": 1, "G2 robust z-score": -0.153}
{"gene knocked down": "GOLGA8EP", "siRNA no.": 2, "G2 robust z-score": -0.744}
{"gene knocked down": "GOLGA8EP", "siRNA no.": 3, "G2 robust z-score": 0.552}
{"gene knocked down": "SLC7A8", "siRNA no.": 1, "G2 robust z-score": 1}
{"gene knocked down": "SLC7A8", "siRNA no.": 2, "G2 robust z-score": -1.24}
{"gene knocked down": "SLC7A8", "siRNA no.": 3, "G2 robust z-score": 2.45}
{"gene knocked down": "IFNAR1", "siRNA no.": 1, "G2 robust z-score": -0.231}
{"gene knocked down": "IFNAR1", "siRNA no.": 2, "G2 robust z-score": 0.243}
{"gene knocked down": "IFNAR1", "siRNA no.": 3, "G2 robust z-score": 2.68}
{"gene knocked down": "KCND2", "siRNA no.": 1, "G2 robust z-score": -0.762}
{"gene knocked down": "KCND2", "siRNA no.": 2, "G2 robust z-score": -0.28}
{"gene knocked down": "KCND2", "siRNA no.": 3, "G2 robust z-score": -0.653}
{"gene knocked down": "NOSTRIN", "siRNA no.": 1, "G2 robust z-score": 3.33}
{"gene knocked down": "NOSTRIN", "siRNA no.": 2, "G2 robust z-score": -0.618}
{"gene knocked down": "NOSTRIN", "siRNA no.": 3, "G2 robust z-score": 0.864}
{"gene knocked down": "MPC2", "siRNA no.": 1, "G2 robust z-score": 4.38}
{"gene knocked down": "MPC2", "siRNA no.": 2, "G2 robust z-score": -0.77}
{"gene knocked down": "MPC2", "siRNA no.": 3, "G2 robust z-score": -0.512}
{"gene knocked down": "IL20RB", "siRNA no.": 1, "G2 robust z-score": 0.636}
{"gene knocked down": "IL20RB", "siRNA no.": 2, "G2 robust z-score": 3.39}
{"gene knocked down": "IL20RB", "siRNA no.": 3, "G2 robust z-score": 2.57}
{"gene knocked down": "RSL1D1", "siRNA no.": 1, "G2 robust z-score": 0.102}
{"gene knocked down": "RSL1D1", "siRNA no.": 2, "G2 robust z-score": -0.487}
{"gene knocked down": "RSL1D1", "siRNA no.": 3, "G2 robust z-score": 1.15}
{"gene knocked down": "CDH9", "siRNA no.": 1, "G2 robust z-score": -0.661}
{"gene knocked down": "CDH9", "siRNA no.": 2, "G2 robust z-score": -0.255}
{"gene knocked down": "CDH9", "siRNA no.": 3, "G2 robust z-score": 2.22}

5 entries from above, sorted by “G2 robust z-score”, high to low:
{"gene knocked down": "MPC2", "siRNA no.": 1, "G2 robust z-score": 4.38}
{"gene knocked down": "NOSTRIN", "siRNA no.": 1, "G2 robust z-score": 3.33}
{"gene knocked down": "NOSTRIN", "siRNA no.": 3, "G2 robust z-score": 0.864}
{"gene knocked down": "NOSTRIN", "siRNA no.": 2, "G2 robust z-score": -0.618}
{"gene knocked down": "KCND2", "siRNA no.": 3, "G2 robust z-score": -0.653}
